According to the supplement of paper PMC6078165:

Test system: MDAMB231
Assay: relative JC-1 red fluorescence (viability) vs pre-drug, coculture with fibroblast (fraction); higher = more viable cancer cells
Experimental: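 JC-1 labelled TNBC cells cocultured 1:1 (1,500 cells each) with CellTrace Violet stained primary or stromal fibroblasts in 384-well plates in FluoroBrite medium, treated with one of 42 anticancer drugs at 0.1, 1, 10 or 100 uM. JC-1 red fluorescence (mitochondrial integrity in cancer cells only) was read by plate reader every 8 h for 72 h. Values are normalised to each well's pre-drug value. The stock of one drug was tenfold lower, so its dose labels may be too high.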

O=C(O)C1(C(=O)O)CCC1.[NH2-].[NH2-].[Pt+2] [Carboplatin]
relative JC-1 red fluorescence
Conditions	8 h	16 h	24 h	32 h	40 h	48 h	56 h	64 h	72 h
0.1 µM, coculture fibroblast: C12385	0.776	0.737	0.655	0.618	0.555	0.525	0.479	0.475	0.455
0.1 µM, coculture fibroblast: H6013	0.88005	0.817	0.777	0.774	0.734	0.724	0.7	0.682	0.636
0.1 µM, coculture fibroblast: H6019	0.756	0.6713	0.635	0.604	0.563	0.549	0.501	0.483	0.439
0.1 µM, coculture fibroblast: H6076	0.889	0.802	0.743	0.722	0.667	0.634	0.601	0.586	0.572
0.1 µM, coculture fibroblast: H6231	0.901	0.802	0.715	0.664	0.605	0.568	0.521	0.5002	0.4727
0.1 µM, coculture fibroblast: HADF	0.885	0.851	0.8	0.7756	0.75	0.712	0.686	0.668	0.631
0.1 µM, coculture fibroblast: HCFa	0.878	0.81	0.745	0.697	0.648	0.599	0.564	0.532	0.498
0.1 µM, coculture fibroblast: HCPF	0.8956	0.791	0.697	0.674	0.611	0.564	0.519	0.482	0.46
0.1 µM, coculture fibroblast: HHSteC	0.8987	0.832	0.778	0.726	0.673	0.648	0.607	0.577	0.54
0.1 µM, coculture fibroblast: HMF	0.867	0.7658	0.6742	0.638	0.581	0.538	0.492	0.472	0.45
0.1 µM, coculture fibroblast: HPFa	0.948	0.91	0.841	0.786	0.747	0.694	0.644	0.612	0.568
0.1 µM, coculture fibroblast: HUF	0.803	0.691	0.653	0.526	0.46	0.43	0.385	0.374	0.354
0.1 µM, coculture fibroblast: Hs5	0.851	0.76	0.698	0.655	0.612	0.558	0.522	0.49	0.464
0.1 µM, coculture fibroblast: Hs27A	0.86277	0.81428	0.7689	0.75	0.699	0.622	0.62	0.596	0.545
0.1 µM, coculture fibroblast: Hs343T	0.88	0.809	0.714	0.685	0.626	0.576	0.529	0.502	0.475
0.1 µM, coculture fibroblast: WS1	0.7587	0.696	0.594	0.553	0.495	0.466	0.419	0.397	0.371
1 µM, coculture fibroblast: C12385	0.7436	0.714	0.678	0.62	0.496	0.516	0.499	0.506	0.495
1 µM, coculture fibroblast: H6013	0.893	0.8222	0.777	0.755	0.718	0.69	0.666	0.642	0.588
1 µM, coculture fibroblast: H6019	0.765	0.703	0.677	0.657	0.623	0.603	0.55	0.516	0.467
1 µM, coculture fibroblast: H6076	0.854	0.798	0.762	0.748	0.703	0.673	0.653	0.63	0.609
1 µM, coculture fibroblast: H6231	0.9173	0.826	0.803	0.762	0.718	0.687	0.649	0.629	0.595
1 µM, coculture fibroblast: HADF	0.8845	0.8237	0.7818	0.739	0.701	0.67	0.645	0.6348	0.581
1 µM, coculture fibroblast: HCFa	0.859	0.825	0.778	0.736	0.684	0.631	0.592	0.556	0.505
1 µM, coculture fibroblast: HCPF	0.8788	0.763	0.707	0.685	0.62	0.586	0.558	0.531	0.509
1 µM, coculture fibroblast: HHSteC	0.872	0.835	0.793	0.734	0.683	0.659	0.618	0.588	0.545
1 µM, coculture fibroblast: HMF	0.8645	0.77	0.7	0.656	0.604	0.56	0.523	0.503	0.478
1 µM, coculture fibroblast: HPFa	0.931	0.86	0.799	0.7361	0.7019	0.658	0.598	0.558	0.498
1 µM, coculture fibroblast: HUF	0.837	0.733	0.701	0.583	0.5146	0.488	0.439	0.42	0.4
1 µM, coculture fibroblast: Hs5	0.856	0.783	0.714	0.6623	0.617	0.556	0.517	0.486	0.455
1 µM, coculture fibroblast: Hs27A	0.8773	0.8263	0.7886	0.7528	0.7033	0.646	0.638	0.622	0.565
1 µM, coculture fibroblast: Hs343T	0.823	0.703	0.627	0.583	0.526	0.473	0.436	0.42	0.396
1 µM, coculture fibroblast: WS1	0.7106	0.655	0.564	0.51	0.453	0.4209	0.376	0.364	0.337

The reference is the same well before dosing, and untreated signal decays as well.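 Fibroblast labels name human fibroblasts: mostly primary ones from tissues such as uterus (C12385, HUF), lung (H6013), bone (Hs27A), adrenal (HADF) and skin (WS1), plus mammary HMF and breast cancer-associated Hs343T. The cancer cells are basal-like or mesenchymal-like triple-negative breast cancer lines. The paper calls a changed response a hit when it shifts by more than 3x the replicate standard deviation. The tissue of the other fibroblasts is not given here.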
